Measurements reported in PubChem BioAssay AID504793 (Drosophila RNAi Screening Center, 2011)
The screen tested about 23,000 reagents; this is a random part of those with a known target gene and a result. In the full data, 62 (0.27%) were called active. 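Calls come from follow-up tests whose scores are not deposited, so confirmed genes may have low counts here; counts are not normalised per plate.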 Raw values vary from plate to plate and are shown uncorrected. The numbers tell different reagents against one gene apart. A plus sign joins genes that one reagent is predicted to hit.

Purpose: 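Whole-genome screen for parts of the DNA damage checkpoint at G2/M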 (primary screen)
Cell system: Drosophila S2R+ cells
Reagent: long dsRNA against Drosophila genes, about 0.25 µg dsRNA per well
Time to read-out: 4 days of dsRNA, then 4 hours of drug before read-out
Conditions: doxorubicin 0.5 µM for 4 hours to cause double-strand breaks, in cells also given a low, harmless dose of dsRNA against nbs to sensitise the assay
Read-out: 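Mitotic index as the number of phospho-histone H3-positive cells in each well following doxorubicin, given as raw counts without normalisation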
Scale: mitotic cells: higher = more cells in mitosis, weaker G2 arrest
Rule for the call: 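a call needs confirmation in secondary tests, with other dsRNAs and a check of mitotic timing without damage, not just a high primary count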
Meaning of the calls: active = confirmed in follow-up tests; inactive = not confirmed

| predicted target | reagent | mitotic cells, replicate 1 | mitotic cells, replicate 2 | activity call |
| --- | --- | --- | --- | --- |
| CG13251 | 1 | 6 | – | inactive |
| CG13251 | 2 | 12 | – | inactive |
| Acsf2 (Acyl-CoA synthetase family member 2) | 1 | 5 | – | inactive |
| Acsf2 (Acyl-CoA synthetase family member 2) | 2 | 8 | – | inactive |
| CG11333 | 1 | 4 | – | inactive |
| GILT1 (Gamma-interferon-inducible lysosomal thiol reductase 1) | 1 | 5 | – | inactive |
| eEFSec | 1 | 2 | – | inactive |
| Ir7b (Ionotropic receptor 7b) | 1 | 11 | – | inactive |
| CG13566 | 1 | 2 | – | inactive |
| CG13566 | 2 | 8 | – | inactive |
| Pabp2 | 1 | 3 | – | inactive |
| Inx6 (Innexin 6) | 1 | 12 | – | inactive |
| Inx6 (Innexin 6) | 2 | 9 | – | inactive |
| Spn100A (Serpin 100A) | 1 | 2 | – | inactive |
| CG13630 | 1 | 3 | – | inactive |
| Phyhd1 (Phytanoyl-CoA dioxygenase domain containing 1) | 1 | 6 | – | inactive |
| Phyhd1 (Phytanoyl-CoA dioxygenase domain containing 1) | 2 | 10 | – | inactive |
| CG10151 | 1 | 10 | – | inactive |
| CG10151 | 2 | 6 | – | inactive |
| Cdc42 (Cell division cycle 42) | 1 | 4 | – | inactive |
| Cdc42 (Cell division cycle 42) | 2 | 8 | – | inactive |
| CG31495 | 1 | 4 | – | inactive |
| CG31495 | 2 | 5 | – | inactive |
| CG11413 + CG4622 | 1 | 7 | – | inactive |
| CG11413 + CG4622 | 2 | 10 | – | inactive |
| Cht12 (Chitinase 12) | 1 | 4 | – | inactive |
| slp2 (sloppy paired 2) | 1 | 3 | – | inactive |
| slp2 (sloppy paired 2) | 2 | 5 | – | inactive |
| CG10467 | 1 | 3 | – | inactive |
| CG32320 | 1 | 10 | – | inactive |
| CG32320 | 2 | 7 | – | inactive |
| INPP5E (Inositol polyphosphate 5-phosphatase E) | 1 | 4 | – | inactive |

Entries listed so far whose gene name begins with I or i (4):
| predicted target | reagent | mitotic cells, replicate 1 | mitotic cells, replicate 2 | activity call |
| --- | --- | --- | --- | --- |
| Ir7b (Ionotropic receptor 7b) | 1 | 11 | – | inactive |
| Inx6 (Innexin 6) | 1 | 12 | – | inactive |
| Inx6 (Innexin 6) | 2 | 9 | – | inactive |
| INPP5E (Inositol polyphosphate 5-phosphatase E) | 1 | 4 | – | inactive |

Further entries follow:
| predicted target | reagent | mitotic cells, replicate 1 | mitotic cells, replicate 2 | activity call |
| --- | --- | --- | --- | --- |
| Dus4 (Dihydrouridine synthase 4) | 1 | 4 | – | inactive |
| CG9109 | 1 | 3 | – | inactive |
| CG9109 | 2 | 8 | – | inactive |
| Wdr24 (WD repeat domain 24) | 1 | 10 | – | inactive |
| Or30a (Odorant receptor 30a) | 1 | 13 | – | inactive |
| mRpL36 (mitochondrial ribosomal protein L36) | 1 | 2 | – | inactive |
| Pop4 (POP4 ribonuclease P/MRP subunit) | 1 | 3 | – | inactive |
| Pop4 (POP4 ribonuclease P/MRP subunit) | 2 | 11 | – | inactive |
| Nepl8 (Neprilysin-like 8) | 1 | 2 | – | inactive |
| Sras (severas) | 1 | 4 | – | inactive |
| CG7017 | 1 | 6 | – | inactive |
| NC2beta (Negative Cofactor 2beta) | 1 | 5 | – | inactive |
| NC2beta (Negative Cofactor 2beta) | 2 | 4 | – | inactive |
| CG18178 | 1 | 2 | – | inactive |
| Ir7c (Ionotropic receptor 7c) | 1 | 11 | – | inactive |
| Qsox1 (Quiescin sulfhydryl oxidase 1) | 1 | 3 | – | inactive |
| Qsox1 (Quiescin sulfhydryl oxidase 1) | 2 | 4 | – | inactive |
| Or83c (Odorant receptor 83c) | 1 | 7 | – | inactive |
| Dlish (Dachs ligand with SH3s) | 1 | 10 | – | inactive |
| Vti1b (Vesicle transport through interaction with t-SNAREs 1b) | 1 | 8 | – | inactive |
| Vti1b (Vesicle transport through interaction with t-SNAREs 1b) | 2 | 8 | – | inactive |
| flr (flare) | 1 | 6 | – | inactive |
| TwdlS (TweedleS) | 1 | 13 | – | inactive |
| rho-6 (rhomboid-6) | 1 | 6 | – | inactive |
| rho-6 (rhomboid-6) | 2 | 2 | – | inactive |
| CG13186 | 1 | 7 | – | inactive |
| CG11089 + CG31381 | 1 | 9 | – | inactive |
| CG11089 + CG31381 | 2 | 6 | – | inactive |
| CG11089 + CG31381 | 3 | 6 | – | inactive |
| galla-2 | 1 | 17 | – | inactive |
| galla-2 | 2 | 7 | – | inactive |
| CG31633 | 1 | 2 | – | inactive |
| CG31633 | 2 | 4 | – | inactive |
| slp1 (sloppy paired 1) | 1 | 11 | – | inactive |
| slp1 (sloppy paired 1) | 2 | 8 | – | inactive |
| CG6652 | 1 | 6 | – | inactive |
| CG6652 | 2 | 8 | – | inactive |
| dyw (daywake) | 1 | 12 | – | inactive |
| dyw (daywake) | 2 | 1 | – | inactive |
| CG42663 | 1 | 8 | – | inactive |
| CG42663 | 2 | 9 | 5 | inactive |
| CG42663 | 3 | 6 | – | inactive |
| pix (pixie) | 1 | 6 | – | inactive |
